Data as given in the supplement of paper PMC8551327.
The other results are listed elsewhere or left out. No stated cut-off is given here; in the data, active = 1.25 or more and inactive = the rest. Repeats are few or missing, and single values can be far off.

test system: Kcc2-LUC knock-in mouse primary cortical neurons (Kcc2 promoter reporter); test: Kcc2 promoter-driven luciferase activity relative to vehicle control (fold of vehicle (ratio)); higher = stronger Kcc2 promoter activation (Kcc2 expression enhancer); conditions: 100 nM; 48 h

| Compound | Kcc2 promoter-driven luciferase activity |
| --- | --- |
| CC1=CC23C(COC(=O)C24CO4)C(C(=O)O)=CC3C1C (centres undefined) [Pentalenolactone] | inactive: 0.45 |
| COC1C(C)OC(OC2CC(C)(O)Cc3cc4c(c(O)c32)C(=O)c2c(O)cc3c(c2C4=O)OC2OC3(C)C(O)C(N(C)C)C2O)C(OC)C1(C)OC (centres undefined) | inactive: 0.88 |
| [Cl][Cd][Cl] [Cadmium Chloride] | inactive: 1.15 |
| Fc1cccc(F)c1C1SCc2nc3ccccc3n21 (centres undefined) [Thiazolobenzimidazole] | inactive: 0.8 |
